Assay results published in PubChem BioAssay AID504467 (National Center for Advancing Translational Sciences (NCATS), 2011).
Out of some 330,000 compounds screened, about 7,700 (2.3%) were called active. Inconclusive means that the source gave no clear call. Such entries were picked first, then a sample of the others. Calls follow the shape of the dose curve; as a rule, active = well fitted inhibition curve with a large enough effect; inconclusive = small, poorly fitted or top-dose-only effect, or effect the other way; inactive = flat fitted curve, though single readings scatter. Where the call is inconclusive, the potency comes from a doubtful curve fit.

test: qHTS screen for small molecules that inhibit ELG1-dependent DNA repair in human embryonic kidney (HEK293T) cells expressing luciferase-tagged ELG1; conditions: HEK293T ELG1-luciferase reporter, luminescence, 16 h, DNA damage induced by 5-fluorouridine; activity change, negative = inhibition: at 46.1 µM (top of the series); also: nearly all actives have a fitted effect of over 55% in size
How it was run: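 Step one: seed 2,000 cells per well. Step two: pin-transfer compound or DMSO alongside 5-fluorouridine. Step three: incubate 16 hr, 37 °C, 5% CO2. Step four: add ONE-Glo, wait 30 min, read luminescence.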
% is scaled to controls: 0 for no effect and ±100 for the full control effect; potency is read from the fitted curve at half-maximal effect.

| Compound | activity change, negative = inhibition | Potency |
| --- | --- | --- |
| COc1cccc(NC(=O)CN2C(=O)COc3ccc(S(=O)(=O)N4CCOCC4)cc32)c1 | inactive: 1.01% |  |
| CCCCCNCc1ccc(Cl)cc1 | inactive: 0% |  |
| Cc1ccc(S(=O)(=O)N2CCCCC2)cc1NC(=O)c1ccc(Cl)nc1 |  | inconclusive: 23.1 µM [inhibitor, partial curve, poor fit] |
| c1ccc(CNc2ccc(CNc3ncn[nH]3)cc2)cc1 |  | inconclusive: 6.51 µM [activator, partial curve, poor fit] |
| COc1cc(/C=C2\COC/C(=C\c3cc(OC)c(OC)c(OC)c3)C2=O)cc(OC)c1OC |  | inconclusive: 3.26 µM [inhibitor, full curve, poor fit] |
| O=C(c1ccc(N2CCCC2)c([N+](=O)[O-])c1)N1CCN(c2ccccn2)CC1 |  | inconclusive: 23.1 µM [inhibitor, partial curve] |
| CC(=O)Nc1ccc2nc(-c3ccccc3)cn2c1 |  | inconclusive: 2.06 µM [activator, full curve] |
| CC(C)(C)C(=O)Nc1cc(S(=O)(=O)Nc2ccc(Cl)cc2)ccc1O |  | inconclusive: 29.1 µM [inhibitor, single point] |
| COc1ccc(C(=O)NC(=S)N2CCNC(=O)C2)cc1Br | inactive: -0.3% |  |
| Cc1nc2c(C(=O)N3CCCC3)cnn2c(C)c1Cc1c(F)cccc1Cl | inactive: -3.03% |  |
| COc1cc2[nH]c(=S)n(Cc3ccco3)c(=O)c2cc1OC | inactive: 5.12% |  |
| O=C1NCCN/C1=C\C(=O)c1ccccc1 |  | inconclusive: 16.4 µM [activator, partial curve] |
| O=c1oc2c(CN3CCCCC3)c(O)ccc2c2c1CCCCC2 |  | inconclusive: 20.6 µM [activator, partial curve, poor fit] |
| O=C(CN1C(=O)C2CC=CCC2C1=O)Nc1nc2ccccc2s1 (stereo not given) |  | inconclusive: 18.3 µM [activator, single point] |
| Cc1ccccc1N1C(=O)CC(c2c[nH]c3ccccc23)C1=O (stereo not given) | inactive: 9.63% |  |
| CCCCC(C)(O)C/C=C/[C@H]1[C@H](O)CC(=O)[C@@H]1CCCCCCC(=O)OC (stereo not given in full) |  | inconclusive: 32.6 µM [inhibitor, single point] |
| FC(F)(F)c1nnc(-c2ccccc2)nc1Oc1ccc(Cl)cc1Cl | inactive: -4.29% |  |
| Cc1cccc(OC(C)C(=O)N2CCCN(C)CC2)c1C (stereo not given) | inactive: 12.5% |  |
| O=C(C[n+]1ccccc1)N/N=C/c1ccc(C(=O)O)cc1 | inactive: 11.7% |  |
| COc1cccc(CNC(=O)C2=C(C)C(=O)OC23CCC(C)CC3)c1 (stereo not given) | inactive: 0.732% |  |
| COc1ccc(-n2cnnc2SCC(=O)N2CCN(c3ccccc3)CC2)cc1 |  | inconclusive: 16.4 µM [inhibitor, single point] |
| CNc1oc(-c2ccc(OCc3ccccc3)cc2)nc1C#N |  | inconclusive: 23.1 µM [activator, partial curve] |
| O=C(CSc1nc2ccccc2o1)c1cc2ccccc2oc1=O |  | inconclusive: 29.1 µM [activator, single point] |

Quoted at random: 3 entries already listed.

| Compound | activity change, negative = inhibition | Potency |
| --- | --- | --- |
| O=C(C[n+]1ccccc1)N/N=C/c1ccc(C(=O)O)cc1 | inactive: 11.7% |  |
| Cc1ccccc1N1C(=O)CC(c2c[nH]c3ccccc23)C1=O (stereo not given) | inactive: 9.63% |  |
| CNc1oc(-c2ccc(OCc3ccccc3)cc2)nc1C#N |  | inconclusive: 23.1 µM [activator, partial curve] |

The results go on.

| Compound | activity change, negative = inhibition | Potency |
| --- | --- | --- |
| Cc1cccc(Oc2ccccc2NC(=O)CSCC(=O)Nc2cc(C)on2)c1 |  | inconclusive: 29.1 µM [activator, single point] |
| Nc1ccc2nc(-c3ccc(Cl)cc3)[nH]c2c1 |  | inconclusive: 20.6 µM [activator, partial curve] |
| CCN(CC)S(=O)(=O)c1ccc(OCC(=O)NC(=O)c2ccccc2OC)c([N+](=O)[O-])c1 | inactive: -22.4% |  |
| FC(F)(F)c1cnc(Oc2ccccc2-c2nnc(-c3ccc(Cl)cc3)o2)c(Cl)c1 |  | inconclusive: 18.4 µM [inhibitor, partial curve, poor fit] |
| CC(C)n1cc(CN2CCCC(C(=O)Nc3cccc(-c4cc5ccccc5[nH]4)c3)C2)cn1 (stereo not given) |  | inconclusive: 23.1 µM [inhibitor, single point] |
| COc1ccccc1NCC(O)Cn1c2ccccc2c2ccccc21 (stereo not given) |  | inconclusive: 7.31 µM [inhibitor, partial curve] |
| CCOc1cc(CNCCN2CCOCC2)ccc1OCc1ccccc1Cl | inactive: 2.6% |  |
| CCOC(=O)C(C)N1C(=O)S/C(=C/c2cc(C)n(-c3ccncc3)c2C)C1=O (stereo not given) |  | inconclusive: 29.1 µM [inhibitor, single point] |
| CS(=O)(=O)c1ccccc1C(=O)Nc1nc2ccccc2[nH]1 | inactive: 6.42% |  |
| O=C(CCc1ccccc1)NC1(Cc2ccccc2)CCN(CCc2cccs2)C1=O (stereo not given) | inactive: -29.7% |  |
| CC(C)N(CCNC(=O)c1cn(C)c2ccc(S(=O)(=O)N(C)C)cc2c1=O)Cc1ccccc1 | inactive: -1.56% |  |
| O=C(/C=C/c1ccc(Br)cc1)NC(=S)NNC(=O)c1ccco1 |  | inconclusive: 16.4 µM [activator, single point] |
| O=C(c1ccccc1)n1nc(-c2ccccc2)nc1NCc1ccco1 |  | inconclusive: 14.6 µM [activator, partial curve, poor fit] |
| COc1ccccc1N1CCN(S(=O)(=O)c2c(C)ccc3nsnc23)CC1 |  | inconclusive: 13 µM [inhibitor, single point] |
| Cn1cc(C(=O)c2ccc(Cl)cc2Cl)cc1C=O |  | inconclusive: 29.1 µM [inhibitor, partial curve, poor fit] |
| COc1ccc(CCNC(=O)COC(=O)Cc2ccccc2F)cc1 |  | inconclusive: 11.6 µM [activator, partial curve, poor fit] |
| S=C(Nc1ccc(Br)cc1Cl)NC1CCN(Cc2ccccc2)CC1 |  | inconclusive: 16.4 µM [inhibitor, partial curve] |
| CC(C)[C@H](NS(=O)(=O)c1ccccc1)C(=O)OCC(=O)NC(=O)c1cccn1C |  | inconclusive: 11.6 µM [inhibitor, partial curve] |
| CC1=C(C#N)c2nc(N)c(C#N)c(C)c2/C1=C\c1ccc(-c2ccccc2C(=O)O)o1 |  | active: 8.2 µM |
| CC(C)(C)c1cc(CNC2CS(=O)(=O)C[C@@H]2O)cc(C(C)(C)C)c1O (stereo not given in full) | inactive: -4.9% |  |
| O=C(C1CCN(c2nnnn2-c2ccccc2)CC1)N1CCN(c2ccccc2)CC1 |  | inconclusive: 14.6 µM [inhibitor, partial curve, poor fit] |
| CCCN(CC(=O)Nc1ccccc1Br)CC(=O)Nc1ccc(F)c(F)c1F |  | inconclusive: 20.6 µM [inhibitor, single point] |
